The list is a part of this screen's results and no random one: it gathers some chemical classes. Other doses and runs of a compound may be missing. T/C gives the treated animals as a percentage of the vehicle group. Schedule codes are those of the source, taken here to give the interval after Q, in days (D) or hours (H), and the number of doses after X. Some entries show no survivor count and are marked so; the dose need not have been tolerated. Some doses have a count of surviving animals in place of a T/C: the source holds a T/C of zero for them, seemingly a mark for toxic or unscored doses. Survivors were counted at the toxicity check; its day is shown where the source gives one, and later deaths do not show.
System: CD8F1 mice, subcutaneous mammary adenocarcinoma, T/C%
Experiment: NCI In Vivo Anticancer Drug Screen. Data for tumor model Mammary Adenocarcinoma CD8F1 (subcutaneous) in CD8F1
Conditions: higher T/C = larger tumour
Method: The antitumor activity of compounds was measured in mice bearing transplantable tumors. Survival or tumor size were measured and the results are expressed as the measurement made in the treated group (T) divided by the measurement made in the vehicle treated control group (C). The tumor model used in this assay is Mammary Adenocarcinoma CD8F1 (subcutaneous) in CD8F1

[1] = T/C endpoint: median tumor weight (est.), dose: 12.5 mg/kg/injection, schedule: Q07DX005 (ip), vehicle: Klucel (hydroxypropylcellulose) (HPC), evaluation day not shown
[2] = T/C endpoint: median tumor weight (est.), dose: 25.0 mg/kg/injection, schedule: Q07DX005 (ip), vehicle: Klucel (hydroxypropylcellulose) (HPC), evaluation day not shown
[3] = T/C endpoint: median tumor weight (est.), dose: 50.0 mg/kg/injection, schedule: Q07DX005 (ip), vehicle: Klucel (hydroxypropylcellulose) (HPC), evaluation day not shown

COc1ccc(N(CCCl)CCCl)cc1
T/C (T/C endpoint: median tumor weight (est.), dose: 12.5 mg/kg/injection, schedule: Q07DX005 (ip), vehicle: Klucel (hydroxypropylcellulose) (HPC), evaluated on day 30): 134 % of control
T/C [1]: 66 % of control [survivor count not shown]
T/C (T/C endpoint: median tumor weight (est.), dose: 25.0 mg/kg/injection, schedule: Q07DX005 (ip), vehicle: Klucel (hydroxypropylcellulose) (HPC), evaluated on day 30): 50 % of control
T/C [2]: 66 % of control [survivor count not shown]
T/C (T/C endpoint: median tumor weight (est.), dose: 50.0 mg/kg/injection, schedule: Q07DX005 (ip), vehicle: Klucel (hydroxypropylcellulose) (HPC), evaluated on day 30): 11 % of control
T/C [3]: 38 % of control [survivor count not shown]
survivor count (T/C endpoint: median tumor weight (est.), dose: 100.0 mg/kg/injection, schedule: Q07DX005 (ip), vehicle: Klucel (hydroxypropylcellulose) (HPC)): 0 of 10 on day 30

C[N+](CCCl)(CCCl)Cc1ccc([N+](=O)[O-])cc1
T/C (T/C endpoint: median tumor weight (est.), dose: 6.25 mg/kg/injection, schedule: Q07DX005 (ip), vehicle: saline, evaluation day not shown): 34 % of control [survivor count not shown]
T/C (T/C endpoint: median tumor weight (est.), dose: 12.5 mg/kg/injection, schedule: Q07DX005 (ip), vehicle: saline, evaluation day not shown): 29 % of control [survivor count not shown]
T/C (T/C endpoint: median tumor weight (est.), dose: 25.0 mg/kg/injection, schedule: Q07DX005 (ip), vehicle: saline, evaluation day not shown): 39 % of control [survivor count not shown]
T/C (T/C endpoint: median tumor weight (est.), dose: 50.0 mg/kg/injection, schedule: Q07DX005 (ip), vehicle: saline, evaluation day not shown): 9 % of control [survivor count not shown]

O=NN(CCSCCCl)C(=O)NC1CCCCC1
T/C (T/C endpoint: median tumor weight change, dose: 12.5 mg/kg/injection, schedule: Q01DX001 (ip), vehicle: saline with Tween-80, evaluated on day 28): 209 % of control
T/C (T/C endpoint: median tumor weight change, dose: 15.62 mg/kg/injection, schedule: Q01DX001 (ip), vehicle: saline with Tween-80, evaluated on day 31): 32 % of control
T/C (T/C endpoint: median tumor weight change, dose: 25.0 mg/kg/injection, schedule: Q01DX001 (ip), vehicle: saline with Tween-80, evaluated on day 28): 136 % of control
T/C (T/C endpoint: median tumor weight change, dose: 25.0 mg/kg/injection, schedule: Q01DX001 (ip), vehicle: saline with Tween-80, evaluated on day 33): 98 % of control
T/C (T/C endpoint: median tumor weight change, dose: 25.0 mg/kg/injection, schedule: Q01DX001 (ip), vehicle: saline, evaluated on day 40): 102 % of control
T/C (T/C endpoint: median tumor weight change, dose: 50.0 mg/kg/injection, schedule: Q01DX001 (ip), vehicle: saline with Tween-80, evaluated on day 33): 90 % of control
T/C (T/C endpoint: median tumor weight change, dose: 50.0 mg/kg/injection, schedule: Q01DX001 (ip), vehicle: saline, evaluated on day 40): 135 % of control
T/C (T/C endpoint: median tumor weight change, dose: 100.0 mg/kg/injection, schedule: Q01DX001 (ip), vehicle: saline with Tween-80, evaluated on day 33): 7 % of control
T/C (T/C endpoint: median tumor weight change, dose: 100.0 mg/kg/injection, schedule: Q01DX001 (ip), vehicle: saline, evaluated on day 40): 124 % of control
T/C (T/C endpoint: median tumor weight change, dose: 200.0 mg/kg/injection, schedule: Q01DX001 (ip), vehicle: saline, evaluated on day 40): 116 % of control

O=C(O)c1ccc(CN(CCCl)CCCl)cc1
T/C (T/C endpoint: mean tumor weight, dose: 0.12 mg/kg/injection, schedule: Q07DX006 (ip), vehicle: water, evaluation day not shown): 29 % of control [survivor count not shown]
T/C (T/C endpoint: mean tumor weight, dose: 0.25 mg/kg/injection, schedule: Q07DX006 (ip), vehicle: water, evaluation day not shown): 55 % of control [survivor count not shown]
T/C (T/C endpoint: mean tumor weight, dose: 0.5 mg/kg/injection, schedule: Q07DX006 (ip), vehicle: water, evaluation day not shown): 25 % of control [survivor count not shown]
T/C (T/C endpoint: mean tumor weight, dose: 1.0 mg/kg/injection, schedule: Q07DX006 (ip), vehicle: water, evaluation day not shown): 33 % of control [survivor count not shown]
T/C (T/C endpoint: median tumor weight (est.), dose: 0.12 mg/kg/injection, schedule: Q07DX005 (ip), vehicle: water, evaluation day not shown): 54 % of control [survivor count not shown]
T/C (T/C endpoint: median tumor weight (est.), dose: 0.25 mg/kg/injection, schedule: Q07DX005 (ip), vehicle: water, evaluation day not shown): 58 % of control [survivor count not shown]
T/C (T/C endpoint: median tumor weight (est.), dose: 0.5 mg/kg/injection, schedule: Q07DX005 (ip), vehicle: water, evaluation day not shown): 123 % of control [survivor count not shown]
T/C (T/C endpoint: median tumor weight (est.), dose: 1.0 mg/kg/injection, schedule: Q07DX005 (ip), vehicle: water, evaluation day not shown): 106 % of control [survivor count not shown]

ClCCN(CCCl)c1ccc(Cl)cc1
T/C [1]: 116 % of control [survivor count not shown]
T/C [2]: 109 % of control [survivor count not shown]
T/C [3]: 131 % of control [survivor count not shown]

Cc1ccc(N(CCBr)CCBr)cc1
T/C (T/C endpoint: median tumor weight (est.), dose: 3.25 mg/kg/injection, schedule: Q07DX005 (ip), vehicle: Klucel (hydroxypropylcellulose) (HPC), evaluation day not shown): 167 % of control [survivor count not shown]
T/C (T/C endpoint: median tumor weight (est.), dose: 6.25 mg/kg/injection, schedule: Q07DX005 (ip), vehicle: Klucel (hydroxypropylcellulose) (HPC), evaluation day not shown): 164 % of control [survivor count not shown]
T/C (T/C endpoint: median tumor weight (est.), dose: 12.5 mg/kg/injection, schedule: Q01DX005 (ip), vehicle: Klucel (hydroxypropylcellulose) (HPC), evaluation day not shown): 16 % of control [survivor count not shown]
T/C [1]: 103 % of control [survivor count not shown]
T/C (T/C endpoint: median tumor weight (est.), dose: 25.0 mg/kg/injection, schedule: Q01DX005 (ip), vehicle: Klucel (hydroxypropylcellulose) (HPC), evaluation day not shown): 48 % of control [survivor count not shown]

NS(=O)(=O)c1ccc(N(CCCl)CCCl)cc1
T/C [1]: 178 % of control [survivor count not shown]
T/C [2]: 143 % of control [survivor count not shown]
T/C [3]: 127 % of control [survivor count not shown]
T/C (T/C endpoint: median tumor weight (est.), dose: 100.0 mg/kg/injection, schedule: Q07DX005 (ip), vehicle: Klucel (hydroxypropylcellulose) (HPC), evaluation day not shown): 93 % of control [survivor count not shown]

Reference: PubChem BioAssay AID220 (DTP/NCI, 2004)
